For at least one compound, name, drawing or mass did not settle the structure.
Tested on: NF-κB target genes (BIRC3, TNFAIP3, IL-8)
Test: qRT-PCR of NF-κB target gene expression in cancer cells
Type: cell-based
Method: RNA was isolated using an RNeasy kit (Qiagen, Valencia, Calif.). cDNA was generated using the Taqman reverse transcription kit (Applied Biosystems, Foster City, Calif.). qRT-PCR was performed using Sybr Select or Power Sybr green master mix (Applied Biosystems). Samples were plated in triplicate and run on a 7300 or 7500 real time PCR machine (Applied Biosystems), using the indicated primers (Table 2). Target gene expression was normalized to actin, HPRT, or GAPDH. Data are expressed as mean fold change+/−SEM and are representative of at least two independent biological replicates.

[1] = OVCAR8 cells, 24 hours, qRT-PCR

Compound | NF-κB target gene expression (INA-6 MM cells, 22-24 hours) | NF-κB target gene expression [1]
O=c1[nH]c2ccccc2n1C1CCN(CCCC(c2ccc(F)cc2)c2ccc(F)cc2)CC1 [pimozide] | upregulation | upregulation
CCc1nc(N)nc(N)c1-c1ccc(Cl)cc1 [pyrimethamine] | upregulation | upregulation
